Experimental findings from paper doi:10.1101/2021.03.11.435010 are described below.

These are yes or no findings as the source states them, for the method shown. Some entries that bind do so weakly or less than the wild type.

The target of this experiment is T1, MED22 (human) (UniProt Q15528).
T1 sequence: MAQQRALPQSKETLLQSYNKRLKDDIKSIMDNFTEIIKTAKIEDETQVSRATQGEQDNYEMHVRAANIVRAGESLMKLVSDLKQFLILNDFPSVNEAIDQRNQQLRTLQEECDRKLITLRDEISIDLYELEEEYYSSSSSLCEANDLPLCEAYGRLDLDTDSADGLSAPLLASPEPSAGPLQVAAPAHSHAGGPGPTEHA
Put plainly: cryo-EM structure.

B1: MED11 (protein, UniProt Q9P086 1-117)
chain: MATYSLANERLRALEDIEREIGAILQNAGTVILELSKEKTNERLLDRQAAAFTASVQHVEAELSAQIRYLTQVATGQPHEGSSYSSRKDCQMALKRVDYARLKLSDVARTCEQMLEN
Consider B1, for which the binding result is on record as “binds”.

B2: MED28 (protein, UniProt Q9H204 1-178)
chain: MAAPLGGMFSGQPPGPPQAPPGLPGQASLLQAAPGAPRPSSSTLVDELESSFEACFASLVSQDYVNGTDQEEIRTGVDQCIQKFLDIARQTECFFLQKRLQLSVQKPEQVIKEDVSELRNELQRKDALVQKHLTKLRHWQQVLEDINVQHKKPADIPQGSLAYLEQASANIPAPLKPT
With B2, the binding entry was “binds”.

B3: MED30 (protein, UniProt Q96HR3 1-178)
chain: MSTPPLAASGMAPGPFAGPQAQQAAREVNTASLCRIGQETVQDIVYRTMEIFQLLRNMQLPNGVTYHTGTYQDRLTKLQDNLRQLSVLFRKLRLVYDKCNENCGGMDPIPVEQLIPYVEEDGSKNDDRAGPPRFASEERREIAEVNKKLKQKNQQLKQIMDQLRNLIWDINAMLAMRN
Take B3: the binding entry is listed as “binds”.
